# Tests used:
# HepG2 = assay: cells; conditions: Homo sapiens, HepG2, 72 h
# MCF7 = assay: cells; conditions: Homo sapiens, MCF7, 72 h
smiles,measurement,setting,value
Cc1[nH]c(C(=O)Nc2ccc(C(N)=O)cc2OC(C)C)c(Cl)c1Cl,IC50,HepG2,> 50 µM
same,IC50,MCF7,> 50 µM

# Reference: ChEMBL document CHEMBL5346880, “ATP-competitive inhibitors of human DNA topoisomerase IIα with improved antiproliferative activity based on N-phenylpyrrolamide scaffold” (Eur J Med Chem, 2023)
